# In patent publication US5652335A, “Physiologically active substance well capable of permeating biomembrane” (Teikoku Seiyaku Kabushiki Kaisha, priority 1990, dated 1997):
# Tested on: extirpated intestine of guinea pig
# Assay: suppressing effect on shrinkage of extirpated intestine of guinea pig by electric stimulations (method of Kosterlitz)
# Type: cell-based
# Experimental: Adamantylated enkephalin derivatives a and b obtained in Examples 1 and 2 were examined for in vivo analgesic effect and in vitro suppressing effect to shrinkage of extirpated intestine of guinea pig by electric stimulations.
# A suppressing effect for the shrinkage of extirpated intestine of guinea pig of the adamantylated enkephalin derivatives a and b was measured in accordance with the method of Kosterlitz (H. W. Kosterlitz, A. A. Watterfield, Ann. Rev. Pharmacol., 15, 29, (1975)).
structure (smiles),measurement,setting,value
CN1CC[C@]23c4c5ccc(O)c4O[C@H]2[C@@H](O)C=C[C@H]3[C@H]1C5.Cl [Morphine hydrogen chloride],Relative Potency,relative to morphine hydrogen chloride = 1.00,1.00
same,ED50 (mol) (mean ± s.e.m.),"suppression of electrically stimulated shrinkage of extirpated guinea pig intestine, in vitro",3.2 ± 0.43 × 10^-8 mol
